Measured values published in PubChem BioAssay AID1347075 (National Center for Advancing Translational Sciences (NCATS), 2019).
Among all 400,000 compounds or so, about 5,500 (1.4%) were called active. Calls come from the whole dose curve; as a rule, active = well fitted cell-killing curve with a large enough effect; inconclusive = small, poorly fitted or top-dose-only effect, or effect the other way; inactive = flat fitted curve, though single readings scatter. Inconclusive results, whose numbers are uncertain, are shown. Potencies beside an inconclusive call are fits to weak or partial responses and may not hold up.

Assay: qHTS assay for MDR1-selective chemotherapeutics: Primary screen using the parental adenocarcinoma cell KB-3-1; note: nearly all actives have a fitted effect of over 60% in size
Settings: KB-3-1 viability, CellTiter-Glo ATP luminescence, 72 h; series mostly up to 46.1 µM
Outline: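 Cytotoxicity in the drug-sensitive parental line KB-3-1 was scored as loss of CellTiter-Glo luminescence following 72 h incubation with compound. Values come from curve fitting of normalized concentration-response data.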
Potency is the fitted concentration of half-maximal effect.

Question: For `Cc1cc(C)cc(-n2cccc2/C=C2/C(=N)N3C(=NC2=O)SN=C3S(C)(=O)=O)c1`, which Potency is on record?
Answer: The Potency was inconclusive: 20.6 µM [cytotoxic, single point].
